Some entries share one result that the patent states for a list of compounds.
What was measured:
HSV-2 = assay: Plaque reduction assay in BHK21/C13 cells; type: cell-based, herpes simplex virus type 2; details: HSV-2, highest drug concentrations, 400 pfu/plate, 48 h
Description: Plaque reduction assay. Confluent monolayers (4×10^6 cells) of BHK21/C13 cells were preincubated with the appropriate drug concentration, 0.1% DMSO(v/v) or mock treated as a control for 24 h and subsequently infected at a moi of 400 pfu/plate with either HSV-1 or HSV-2 and incubated for 48 h at 37° C. […] Tests of each drug concentration were performed in triplicate and the average of the 3 plates calculated. […]
(§1) Plaquing Efficiency in the Presence of ADA and DIBA. To determine if the reduction in virus yield seen in the previous experiment was due to a virucidal effect, inhibition of virus entry (adsorption penetration) or intracellular replication, a plaque reduction assay was carried out. Here, the ability of the virus to plaque was measured. An effect on the stability of the virus particle or virus entry would lead to a reduction in the number of plaques compared to the control untreated plates for a given amount of virus. In contrast, an effect on intracellular virus replication would not lead to a significant reduction in plaques.

HSV-1 = assay: Plaque reduction assay in BHK21/C13 cells; type: cell-based, herpes simplex virus type 1; details: HSV-1, highest drug concentrations, 400 pfu/plate, 48 h
Description: Plaque reduction assay. Confluent monolayers (4×10^6 cells) of BHK21/C13 cells were preincubated with the appropriate drug concentration, 0.1% DMSO(v/v) or mock treated as a control for 24 h and subsequently infected at a moi of 400 pfu/plate with either HSV-1 or HSV-2 and incubated for 48 h at 37° C. […] Tests of each drug concentration were performed in triplicate and the average of the 3 plates calculated. Results were expressed as pfu/plate and % of the number of plaques on the untreated control plates (23).
as §1

## NC(=O)N=NC(N)=O [ADA, azodicarbonamide]
HSV-2
  reduction in number of plaques compared to untreated plates: ≤ 10%
HSV-1
  reduction in number of plaques compared to untreated plates: ≤ 10%

— patent publication US6946253B2, “Herpes zinc finger motifs” (University Court of the University of Glasgow, priority 2000, dated 2005)
